In the supplement of paper PMC6411743:
± gives the standard deviation of the averaged measurements. The entries are a selection whose mix differs from that of the whole data set.

What was measured:
Experiment in all cases: NP40-soluble protein abundance relative to vehicle (solubility fold change) (ratio); higher = more soluble protein in presence of ATP
[1] = molecular target: T1, UniProt Q9UJS0 and related entries
T1 sequence (whole entry): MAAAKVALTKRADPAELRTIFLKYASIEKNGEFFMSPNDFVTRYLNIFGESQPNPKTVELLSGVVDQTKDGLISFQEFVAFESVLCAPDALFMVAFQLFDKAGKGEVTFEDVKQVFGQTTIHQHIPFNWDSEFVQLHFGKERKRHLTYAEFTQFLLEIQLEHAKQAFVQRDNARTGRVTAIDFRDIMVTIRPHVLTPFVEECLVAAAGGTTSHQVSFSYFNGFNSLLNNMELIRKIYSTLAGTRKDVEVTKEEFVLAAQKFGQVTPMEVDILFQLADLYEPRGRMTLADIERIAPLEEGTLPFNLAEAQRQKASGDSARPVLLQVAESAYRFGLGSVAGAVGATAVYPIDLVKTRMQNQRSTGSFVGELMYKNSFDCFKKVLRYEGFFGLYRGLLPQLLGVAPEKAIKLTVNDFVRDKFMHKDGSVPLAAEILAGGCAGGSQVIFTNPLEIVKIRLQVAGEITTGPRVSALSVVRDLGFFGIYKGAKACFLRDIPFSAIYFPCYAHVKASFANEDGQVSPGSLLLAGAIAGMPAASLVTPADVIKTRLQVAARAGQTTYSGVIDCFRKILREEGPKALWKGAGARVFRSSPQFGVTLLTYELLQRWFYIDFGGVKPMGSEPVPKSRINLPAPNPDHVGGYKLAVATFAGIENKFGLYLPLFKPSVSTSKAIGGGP
Outline: (§1)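 Jurkat crude lysate (Dounce-homogenised) was treated with eight concentrations from 0.1 to 10 mM for 10 min at room temperature, then 3 min at 37 °C. It was solubilised with 0.8% NP40 and benzonase (60 min, 4 °C) and ultracentrifuged, and the supernatant was TMT-labelled for LC-MS/MS. Intensities were vsn-normalised, and the value is the fold change against the NP40-processed vehicle per replicate, from three independent experiments.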

UniProt Q9ULD0 = molecular target: T2, UniProt Q9ULD0
T2 sequence (whole entry): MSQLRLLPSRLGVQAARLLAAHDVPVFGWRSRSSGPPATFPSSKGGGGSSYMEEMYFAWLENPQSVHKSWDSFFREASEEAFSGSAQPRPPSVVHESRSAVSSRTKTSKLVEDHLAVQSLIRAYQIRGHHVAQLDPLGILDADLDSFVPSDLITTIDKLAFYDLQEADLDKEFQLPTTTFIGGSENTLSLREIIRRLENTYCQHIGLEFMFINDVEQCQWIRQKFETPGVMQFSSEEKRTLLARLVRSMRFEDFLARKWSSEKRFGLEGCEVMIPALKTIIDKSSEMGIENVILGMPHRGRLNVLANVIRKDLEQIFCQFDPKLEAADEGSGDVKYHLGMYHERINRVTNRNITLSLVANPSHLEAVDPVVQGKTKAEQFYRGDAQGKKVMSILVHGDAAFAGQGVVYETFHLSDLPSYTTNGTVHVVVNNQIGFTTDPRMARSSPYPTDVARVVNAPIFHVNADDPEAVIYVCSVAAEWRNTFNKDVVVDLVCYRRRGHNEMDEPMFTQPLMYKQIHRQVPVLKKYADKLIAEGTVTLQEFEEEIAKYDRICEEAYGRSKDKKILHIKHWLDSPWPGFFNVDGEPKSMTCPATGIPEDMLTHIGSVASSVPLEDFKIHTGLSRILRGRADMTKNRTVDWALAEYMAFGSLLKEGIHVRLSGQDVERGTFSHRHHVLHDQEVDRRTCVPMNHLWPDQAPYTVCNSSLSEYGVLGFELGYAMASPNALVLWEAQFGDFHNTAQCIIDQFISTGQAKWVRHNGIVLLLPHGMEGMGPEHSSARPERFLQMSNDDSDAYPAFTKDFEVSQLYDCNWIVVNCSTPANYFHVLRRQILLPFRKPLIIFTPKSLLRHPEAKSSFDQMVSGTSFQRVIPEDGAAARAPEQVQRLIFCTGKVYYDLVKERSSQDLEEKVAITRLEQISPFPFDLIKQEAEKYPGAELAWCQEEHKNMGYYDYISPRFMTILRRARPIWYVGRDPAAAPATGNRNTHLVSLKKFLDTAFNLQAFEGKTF
Outline: as §1

[2] = molecular target: T3, UniProt Q9UPU7 and related entries
T3 sequence (whole entry): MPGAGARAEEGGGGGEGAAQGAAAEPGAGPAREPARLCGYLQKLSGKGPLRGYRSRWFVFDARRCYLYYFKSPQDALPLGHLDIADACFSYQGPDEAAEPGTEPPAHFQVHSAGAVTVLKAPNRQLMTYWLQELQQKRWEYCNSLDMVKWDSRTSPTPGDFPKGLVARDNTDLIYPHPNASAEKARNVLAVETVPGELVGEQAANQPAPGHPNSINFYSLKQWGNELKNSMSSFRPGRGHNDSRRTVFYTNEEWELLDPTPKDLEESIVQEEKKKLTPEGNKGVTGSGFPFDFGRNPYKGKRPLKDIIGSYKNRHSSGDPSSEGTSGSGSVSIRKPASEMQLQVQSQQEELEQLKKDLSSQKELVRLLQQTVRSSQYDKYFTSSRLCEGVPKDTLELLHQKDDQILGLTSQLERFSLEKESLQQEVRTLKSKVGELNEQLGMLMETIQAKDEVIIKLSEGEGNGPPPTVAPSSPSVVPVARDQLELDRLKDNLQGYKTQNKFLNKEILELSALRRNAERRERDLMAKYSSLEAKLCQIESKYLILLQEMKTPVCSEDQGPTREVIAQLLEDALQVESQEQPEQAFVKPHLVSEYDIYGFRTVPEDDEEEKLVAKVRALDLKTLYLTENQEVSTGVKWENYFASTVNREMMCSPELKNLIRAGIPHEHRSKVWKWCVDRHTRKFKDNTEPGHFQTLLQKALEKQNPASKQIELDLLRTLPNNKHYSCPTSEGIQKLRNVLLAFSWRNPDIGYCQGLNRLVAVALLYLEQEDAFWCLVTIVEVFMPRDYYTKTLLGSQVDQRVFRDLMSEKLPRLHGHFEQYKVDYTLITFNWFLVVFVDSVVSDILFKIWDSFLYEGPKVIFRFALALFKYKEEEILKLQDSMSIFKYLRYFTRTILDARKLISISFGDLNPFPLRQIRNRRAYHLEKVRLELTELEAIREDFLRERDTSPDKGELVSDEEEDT
Outline: as §1

[3] = molecular target: T4, UniProt Q9Y223 and related entries
T4 sequence (whole entry): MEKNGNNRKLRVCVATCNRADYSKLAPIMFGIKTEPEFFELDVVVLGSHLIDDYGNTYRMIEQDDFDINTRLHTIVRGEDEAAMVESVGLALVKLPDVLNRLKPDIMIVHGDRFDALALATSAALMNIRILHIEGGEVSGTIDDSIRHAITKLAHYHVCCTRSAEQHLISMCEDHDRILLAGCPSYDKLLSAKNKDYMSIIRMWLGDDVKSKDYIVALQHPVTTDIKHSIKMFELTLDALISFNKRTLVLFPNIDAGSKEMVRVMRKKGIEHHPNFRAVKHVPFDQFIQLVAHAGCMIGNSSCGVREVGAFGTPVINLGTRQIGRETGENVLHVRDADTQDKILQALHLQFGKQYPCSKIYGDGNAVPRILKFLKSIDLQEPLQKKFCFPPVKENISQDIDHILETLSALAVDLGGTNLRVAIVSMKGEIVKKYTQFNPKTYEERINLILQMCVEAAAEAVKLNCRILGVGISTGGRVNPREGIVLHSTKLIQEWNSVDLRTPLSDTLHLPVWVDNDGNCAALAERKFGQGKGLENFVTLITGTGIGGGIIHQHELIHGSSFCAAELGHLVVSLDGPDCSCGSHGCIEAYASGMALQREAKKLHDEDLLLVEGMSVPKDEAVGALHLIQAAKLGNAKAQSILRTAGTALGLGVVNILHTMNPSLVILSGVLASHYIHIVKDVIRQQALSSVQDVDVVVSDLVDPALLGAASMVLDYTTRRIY
Outline: as §1

Nc1ncnc2c1ncn2[C@@H]1O[C@H](COP(=O)(O)OP(=O)(O)OP(=O)(O)O)[C@@H](O)[C@H]1O [adenosine triphosphate]
NP40-soluble protein abundance ([1]; concentration: 6mM): 1.03 ± 0.12
NP40-soluble protein abundance ([1]; concentration: 8mM): 1.1 ± 0.075
NP40-soluble protein abundance ([1]; concentration: 10mM): 1.12 ± 0.046
NP40-soluble protein abundance (UniProt Q9ULD0; concentration: 1mM): 1.15 ± 0.1
NP40-soluble protein abundance (UniProt Q9ULD0; concentration: 2mM): 1.12 ± 0.15
NP40-soluble protein abundance (UniProt Q9ULD0; concentration: 4mM): 1.05 ± 0.12
NP40-soluble protein abundance (UniProt Q9ULD0; concentration: 6mM): 1.08 ± 0.22
NP40-soluble protein abundance (UniProt Q9ULD0; concentration: 8mM): 1.11 ± 0.19
NP40-soluble protein abundance (UniProt Q9ULD0; concentration: 10mM): 1.1 ± 0.2
NP40-soluble protein abundance ([2]; concentration: 1mM): 1.01 ± 0.02
NP40-soluble protein abundance ([2]; concentration: 2mM): 1.01 ± 0.048
NP40-soluble protein abundance ([2]; concentration: 4mM): 0.995 ± 0.015
NP40-soluble protein abundance ([2]; concentration: 6mM): 1.06 ± 0.081
NP40-soluble protein abundance ([2]; concentration: 8mM): 0.9963 ± 0.0076
NP40-soluble protein abundance ([2]; concentration: 10mM): 0.9865 ± 0.0087
NP40-soluble protein abundance ([3]; concentration: 1mM): 0.992 ± 0.064
NP40-soluble protein abundance ([3]; concentration: 2mM): 0.981 ± 0.065
NP40-soluble protein abundance ([3]; concentration: 4mM): 0.973 ± 0.032
NP40-soluble protein abundance ([3]; concentration: 6mM): 0.899 ± 0.045
NP40-soluble protein abundance ([3]; concentration: 8mM): 0.97 ± 0.03
NP40-soluble protein abundance ([3]; concentration: 10mM): 0.947 ± 0.058
